Results from patent US12404301B2, “Polypeptide having anti-aging activity, and application thereof” (NANJING ANJI BIOLOGICAL TECHNOLOGY CO., LTD., priority 2020, dated 2025).
At least one peptide structure holds a part that was inferred or is arguable (an end, a ring closure or a residue). Where no end group is shown, it is not given here.

What was measured:
Type in all cases: in vivo
[1] = system: Wild-type Caenorhabditis elegans; experiment: Experiment on the lifespan of Caenorhabditis elegans; details: for longest lifespan of the nematodes / Median survival time (time to half death) / day when death occurs compared with the control group / time to half death compared with the control group (significance) / longest lifespan, days longer than that of the control group / time to half death longer than in the control group: 10 nM; for Median survival time (time to half death): Kaplan-Meier, Median ± SE; for day when death occurs compared with the control group / time to half death compared with the control group (significance) / effect on the lifespan of Caenorhabditis elegans (survival curve, FIG. 1): in words; for longest lifespan, days longer than that of the control group / time to half death longer than in the control group: vs control group
Description: Synchronization of Caenorhabditis elegans: The NGM plate with a moderate nematode density was selected. The larvae at the L4 stage were picked with a pick needle for about 20 in total and transferred into the blank NGM plate. After they developed into adults and laid the first batch of eggs, all the adults were picked out. About 12 hours later, the eggs hatched into larvae, to obtain the synchronized larvae at the L1 stage. Preliminary preparation for the experiment on the lifespan of Caenorhabditis elegans: The NGM was washed with 1 mL of M9 buffer. The resulting buffer containing the larvae at the L1 stage was collected into an EP tube, placed in a chromatographic cabinet at 4° C. for 5 min, and centrifuged at 1500× g/4° C. for 3 min. The supernatant was removed. After 100 μL of buffer was resuspended, the nematodes were counted under a microscope, and the nematodes were diluted to a concentration of 30 worms/10 μL. 10 μL of diluted nematodes were added into the NGM plate inoculated with E. coli OP50, and the nematodes were counted under the microscope to ensure that there were about 30 nematodes. The NGM plate was placed in a constant temperature incubator to culture. Experiment on the lifespan of Caenorhabditis elegans: After the nematodes at the L1 stage developed to the L4 stage, 100 μL of 15.6 μg/mL 5-FUDR was added for inhibition of Caenorhabditis elegans from oviposition. After the nematodes developed to adults, the dosing started, and the nematodes were divided into a control group and a 10 nM dose group, which was recorded as day 1 of the lifespan experiment. After that, the dosing was carried out every day, the numbers of nematodes that survived, died, and unexpectedly died were observed and recorded every day, and the status of the nematodes was observed and recorded, until the last nematode died. […] The dead nematodes need to be picked out of the plate. The E. coli OP50 needs to be added in time when exhausted. Kaplan-Meier statistical analysis was carried out on the data, and the data results were expressed as Median±SE. Compared with the control group, *P<0.05 represents a significant difference, and **P<0.01 represents a very significant difference.

Caenorhabditis elegans [2] = experiment: Experiment on acute oxidative stress of Caenorhabditis elegans; details: in words; for movement ability under acute oxidative stress vs control group (FIG. 8A): Day 4; for survival rate of nematodes under acute oxidative stress (FIG. 7): Day 4 and Day 8; for survival rate of nematodes under acute oxidative stress (FIG. 7) / proportion of nematodes in grade A, rating of movement ability under acute oxidative stress (FIG. 8B): vs control group; for proportion of nematodes in grade A, rating of movement ability under acute oxidative stress (FIG. 8B): Day 8
Caenorhabditis elegans [3] = experiment: Experiment on acute heat stress of Caenorhabditis elegans; details: in words; for proportion of nematodes in grade A, rating of movement ability under acute heat stress (FIG. 6): Day 4 and Day 8, vs control group; for ability of resistance to acute heat stress (survival curve, FIG. 5): nematodes on Day 4 and Day 8
Caenorhabditis elegans [4] = experiment: Movement ability of Caenorhabditis elegans at different ages; details: vs control group, in words; for proportion of nematodes in grade A, rating of movement ability at different ages (FIG. 9): Day 8 and Day 12; for frequency of pharyngeal pumping (FIG. 10): Day 12
Caenorhabditis elegans [5] = experiment: Detection of the ability of movement behavior of Caenorhabditis elegans; details: 10 nM; for Frequency of body bending / Frequency of head swing / Frequency of pharyngeal pumping: 48 h culture, Mean ± SEM; for ability of movement behavior compared with the control group: in words

Substance: AKFAA [RV1, AKFAA]
- longest lifespan of the nematodes [1]: 36 days
- Median survival time (time to half death) [1]: 22.000 days
- day when death occurs compared with the control group [1]: no significant difference
- time to half death compared with the control group (significance) [1]: does not have a significant difference
- longest lifespan, days longer than that of the control group [1]: 8 days
- time to half death longer than in the control group [1]: 2 days
- Number of remaining nematodes ([1]; day 0, 10 nM): 26
- Number of remaining nematodes ([1]; day 1, 10 nM): 26
- Number of remaining nematodes ([1]; day 2, 10 nM): 26
- Number of remaining nematodes ([1]; day 3, 10 nM): 26
- Number of remaining nematodes ([1]; day 4, 10 nM): 26
- Number of remaining nematodes ([1]; day 5, 10 nM): 26
- Number of remaining nematodes ([1]; day 6, 10 nM): 26
- Number of remaining nematodes ([1]; day 7, 10 nM): 26
- Number of remaining nematodes ([1]; day 8, 10 nM): 26
- Number of remaining nematodes ([1]; day 9, 10 nM): 26
- Number of remaining nematodes ([1]; day 10, 10 nM): 25
- Number of remaining nematodes ([1]; day 11, 10 nM): 23
- Number of remaining nematodes ([1]; day 12, 10 nM): 23
- Number of remaining nematodes ([1]; day 13, 10 nM): 23
- Number of remaining nematodes ([1]; day 14, 10 nM): 22
- Number of remaining nematodes ([1]; day 15, 10 nM): 18
- Number of remaining nematodes ([1]; day 16, 10 nM): 18
- Number of remaining nematodes ([1]; day 17, 10 nM): 18
- Number of remaining nematodes ([1]; day 18, 10 nM): 17
- Number of remaining nematodes ([1]; day 19, 10 nM): 17
- Number of remaining nematodes ([1]; day 20, 10 nM): 15
- Number of remaining nematodes ([1]; day 21, 10 nM): 14
- Number of remaining nematodes ([1]; day 22, 10 nM): 12
- Number of remaining nematodes ([1]; day 23, 10 nM): 10
- Number of remaining nematodes ([1]; day 24, 10 nM): 9
- Number of remaining nematodes ([1]; day 25, 10 nM): 8
- Number of remaining nematodes ([1]; day 26, 10 nM): 5
- Number of remaining nematodes ([1]; day 27, 10 nM): 4
- Number of remaining nematodes ([1]; day 28, 10 nM): 3
- Number of remaining nematodes ([1]; day 29, 10 nM): 2
- Number of remaining nematodes ([1]; day 30, 10 nM): 2
- Number of remaining nematodes ([1]; day 31, 10 nM): 2
- Number of remaining nematodes ([1]; day 32, 10 nM): 1
- Number of remaining nematodes ([1]; day 33, 10 nM): 1
- Number of remaining nematodes ([1]; day 34, 10 nM): 1
- Number of remaining nematodes ([1]; day 35, 10 nM): 1
- Number of remaining nematodes ([1]; day 36, 10 nM): 1
- Number of remaining nematodes ([1]; day 37, 10 nM): 0
- Number of remaining nematodes ([1]; day 38, 10 nM): 0
- effect on the lifespan of Caenorhabditis elegans (survival curve, FIG. 1) [1]: have the effect of prolonging the lifespan
- movement ability under acute oxidative stress vs control group (FIG. 8A) (Caenorhabditis elegans [2]): no difference in the movement ability
- survival rate of nematodes under acute oxidative stress (FIG. 7) (Caenorhabditis elegans [2]): significantly higher than that in the control group
- proportion of nematodes in grade A, rating of movement ability under acute oxidative stress (FIG. 8B) (Caenorhabditis elegans [2]): higher than that in the control group
- proportion of nematodes in grade A, rating of movement ability under acute heat stress (FIG. 6) (Caenorhabditis elegans [3]): higher than that in the control group
- ability of resistance to acute heat stress (survival curve, FIG. 5) (Caenorhabditis elegans [3]): can significantly improve the ability of resistance to acute heat stress
- proportion of nematodes in grade A, rating of movement ability at different ages (FIG. 9) (Caenorhabditis elegans [4]): higher than that in the control group
- frequency of pharyngeal pumping (FIG. 10) (Caenorhabditis elegans [4]): significantly higher than that in the control group
- frequency of head swing at different ages (FIG. 10) (Caenorhabditis elegans [4]): significantly higher than that in the control group
- Frequency of body bending (Caenorhabditis elegans [5]): 14.50 ± 0.426 /30 s
- Frequency of head swing (Caenorhabditis elegans [5]): 62.60 ± 1.162 /30 s
- Frequency of pharyngeal pumping (Caenorhabditis elegans [5]): 181.10 ± 3.532 /30 s
- ability of movement behavior compared with the control group (Caenorhabditis elegans [5]): can significantly enhance the muscle movement

Substance: TKFAA [Ace, TKFAA]
- longest lifespan of the nematodes [1]: 37 days
- Median survival time (time to half death) [1]: 24.000 days
- day when death occurs compared with the control group [1]: delayed
- time to half death compared with the control group (significance) [1]: has a significant difference
- longest lifespan, days longer than that of the control group [1]: 9 days
- time to half death longer than in the control group [1]: 4 days
- Number of remaining nematodes ([1]; day 0, 10 nM): 30
- Number of remaining nematodes ([1]; day 1, 10 nM): 30
- Number of remaining nematodes ([1]; day 2, 10 nM): 30
- Number of remaining nematodes ([1]; day 3, 10 nM): 30
- Number of remaining nematodes ([1]; day 4, 10 nM): 30
- Number of remaining nematodes ([1]; day 5, 10 nM): 30
- Number of remaining nematodes ([1]; day 6, 10 nM): 30
- Number of remaining nematodes ([1]; day 7, 10 nM): 30
- Number of remaining nematodes ([1]; day 8, 10 nM): 30
- Number of remaining nematodes ([1]; day 9, 10 nM): 30
- Number of remaining nematodes ([1]; day 10, 10 nM): 30
- Number of remaining nematodes ([1]; day 11, 10 nM): 30
- Number of remaining nematodes ([1]; day 12, 10 nM): 30
- Number of remaining nematodes ([1]; day 13, 10 nM): 30
- Number of remaining nematodes ([1]; day 14, 10 nM): 27
- Number of remaining nematodes ([1]; day 15, 10 nM): 26
- Number of remaining nematodes ([1]; day 16, 10 nM): 26
- Number of remaining nematodes ([1]; day 17, 10 nM): 26
- Number of remaining nematodes ([1]; day 18, 10 nM): 24
- Number of remaining nematodes ([1]; day 19, 10 nM): 20
- Number of remaining nematodes ([1]; day 20, 10 nM): 20
- Number of remaining nematodes ([1]; day 21, 10 nM): 20
- Number of remaining nematodes ([1]; day 22, 10 nM): 17
- Number of remaining nematodes ([1]; day 23, 10 nM): 16
- Number of remaining nematodes ([1]; day 24, 10 nM): 14
- Number of remaining nematodes ([1]; day 25, 10 nM): 13
- Number of remaining nematodes ([1]; day 26, 10 nM): 11
- Number of remaining nematodes ([1]; day 27, 10 nM): 9
- Number of remaining nematodes ([1]; day 28, 10 nM): 7
- Number of remaining nematodes ([1]; day 29, 10 nM): 5
- Number of remaining nematodes ([1]; day 30, 10 nM): 5
- Number of remaining nematodes ([1]; day 31, 10 nM): 5
- Number of remaining nematodes ([1]; day 32, 10 nM): 3
- Number of remaining nematodes ([1]; day 33, 10 nM): 1
- Number of remaining nematodes ([1]; day 34, 10 nM): 1
- Number of remaining nematodes ([1]; day 35, 10 nM): 1
- Number of remaining nematodes ([1]; day 36, 10 nM): 1
- Number of remaining nematodes ([1]; day 37, 10 nM): 1
- Number of remaining nematodes ([1]; day 38, 10 nM): 0
- effect on the lifespan of Caenorhabditis elegans (survival curve, FIG. 1) [1]: have the effect of prolonging the lifespan
- movement ability under acute oxidative stress vs control group (FIG. 8A) (Caenorhabditis elegans [2]): no difference in the movement ability
- survival rate of nematodes under acute oxidative stress (FIG. 7) (Caenorhabditis elegans [2]): significantly higher than that in the control group
- proportion of nematodes in grade A, rating of movement ability under acute oxidative stress (FIG. 8B) (Caenorhabditis elegans [2]): higher than that in the control group
- proportion of nematodes in grade A, rating of movement ability under acute heat stress (FIG. 6) (Caenorhabditis elegans [3]): higher than that in the control group
- ability of resistance to acute heat stress (survival curve, FIG. 5) (Caenorhabditis elegans [3]): can significantly improve the ability of resistance to acute heat stress
- proportion of nematodes in grade A, rating of movement ability at different ages (FIG. 9) (Caenorhabditis elegans [4]): higher than that in the control group
- frequency of pharyngeal pumping (FIG. 10) (Caenorhabditis elegans [4]): significantly higher than that in the control group
- frequency of head swing at different ages (FIG. 10) (Caenorhabditis elegans [4]): significantly higher than that in the control group
- Frequency of body bending (Caenorhabditis elegans [5]): 14.85 ± 0.437 /30 s
- Frequency of head swing (Caenorhabditis elegans [5]): 67.65 ± 1.708 /30 s
- Frequency of pharyngeal pumping (Caenorhabditis elegans [5]): 189.05 ± 3.891 /30 s
- ability of movement behavior compared with the control group (Caenorhabditis elegans [5]): can significantly enhance the muscle movement
